Assay results as given in patent US5498695A (Pfizer Inc., priority 1994, dated 1996).
HELM strings list residues between dots; [ac] is acetyl, [am] amide, other brackets name non-standard units.

Assay: general procedure: solution-phase peptide synthesis; DEC.HCl / N-hydroxysuccinimide
Settings: late stage modification step

## PEPTIDE1{[ac].Y.V.A.D.[pNA]}$$$$V2.0
  step yield: 87%
